# Library screen at single concentrations

Amino acid sequences for entries named in this document (tags omitted).
UniProt P9WPC5, whole entry: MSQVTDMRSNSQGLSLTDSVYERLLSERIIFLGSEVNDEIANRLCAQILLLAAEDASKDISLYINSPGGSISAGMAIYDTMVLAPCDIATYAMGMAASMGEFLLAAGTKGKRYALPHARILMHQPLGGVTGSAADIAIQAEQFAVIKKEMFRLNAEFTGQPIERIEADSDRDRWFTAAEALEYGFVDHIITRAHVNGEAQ
UniProt P9WPC3, whole entry partner: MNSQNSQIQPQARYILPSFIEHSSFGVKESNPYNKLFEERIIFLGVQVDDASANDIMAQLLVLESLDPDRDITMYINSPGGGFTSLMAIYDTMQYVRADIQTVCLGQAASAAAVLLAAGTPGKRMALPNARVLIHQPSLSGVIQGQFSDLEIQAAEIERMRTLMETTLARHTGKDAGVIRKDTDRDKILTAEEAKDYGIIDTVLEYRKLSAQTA
UniProt P9WNZ1, whole entry: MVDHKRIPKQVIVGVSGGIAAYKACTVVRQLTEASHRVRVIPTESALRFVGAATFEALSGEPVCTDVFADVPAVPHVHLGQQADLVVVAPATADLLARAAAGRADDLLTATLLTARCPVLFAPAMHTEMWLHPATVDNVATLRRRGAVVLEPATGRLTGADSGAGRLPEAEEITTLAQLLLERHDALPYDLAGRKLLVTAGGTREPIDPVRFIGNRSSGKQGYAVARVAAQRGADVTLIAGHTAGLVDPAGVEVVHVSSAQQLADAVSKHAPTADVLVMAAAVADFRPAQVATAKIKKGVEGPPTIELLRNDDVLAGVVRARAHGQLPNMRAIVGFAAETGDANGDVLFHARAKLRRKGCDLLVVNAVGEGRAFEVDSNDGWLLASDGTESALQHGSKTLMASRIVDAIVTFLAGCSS

Measurements from “University of Dundee, Small-Polar-MMV Screening Library” (2021), ChEMBL document CHEMBL3988442.

A: 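ClpP1P2, Mycobacterium tuberculosis (UniProt P9WPC5 and UniProt P9WPC3). Protease assay of ClpP1P2, read by the AMC dye that it sets free. Tested at 50 µM. Higher reads as stronger inhibition, judged from the few compounds that gave an IC50. Most other retested compounds had strongly negative values. About 69,000 compounds were tested under these conditions; 0.015% (about 10) showed 50% or more at least once.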
B: 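Enzyme assay of CoaBC with a phosphate dye (Biomol Green) read at 650 nm. Target: Coenzyme A biosynthesis protein CoaBC, Mycobacterium tuberculosis (UniProt P9WNZ1). Concentration: 30 µM. Direction is inferred from only a few compounds that gave an IC50; most scored high, so higher reads as stronger inhibition. Most strong results did not repeat in a second test. Of about 67,000 compounds tested this way, about 40 (0.06%) reached 50% or more in at least one test.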

Values are the deposited “Percent Effect”, in %. The controls that fix the scale are not given in the record; negative values are as filed. Compounds were drawn at random from those tested, without regard to their results.

With COc1cccc(CN2CCC(c3cc(O)nc(C)n3)C2)c1 (configuration not stated) the screen gave A: 1.904%; B: 3.333%.
With c1ccc(COC[C@@H]2CCC[C@@]23CNCCO3)nc1 the screen gave A: 4.085%; B: 2.222%.
With Cc1cnn(CC2CN(CC(=O)Nc3c(C)nn(C)c3C)CCO2)c1 (configuration not stated) the screen gave A: 6.82%; B: -6.771%.
With CCC(CC)C(=O)N1CCOC2(CNC2)C1 the screen gave A: -15.56%; B: 1.527%.
With CCNC(=O)C(C)Oc1ccc(N(C)S(C)(=O)=O)cc1 (configuration not stated) the screen gave A: -2.653%; B: -2.008%.
With O=C(c1cnccn1)N1CC[C@@H]2CO[C@@H](CN3CCCC3)[C@@H]2C1 the screen gave A: -6.639%; B: -40.53%.
With COc1ccc(C(=O)N2C[C@@H](C(=O)O)[C@H](c3ccccc3)C2)c(C)c1 the screen gave A: 7.979%; B: 6.867%.
With COc1cccc(CNCc2c(C)nc3sc(C)cn23)c1OC the screen gave A: 2.123%; B: -17.94%.
With O=C(NCc1ccccn1)Nc1cc(C(F)(F)F)c[nH]c1=O the screen gave A: -0.9441%; B: 9.106%.
With CCc1nnc(CN(CC)C(=O)C2CC(=O)N(C3CC3)C2)o1 (configuration not stated) the screen gave A: -18.9%; B: -3.247%.
With CC(C)c1nnc2n1CCN(Cc1cc(Cl)c3c(c1)OCO3)C2 the screen gave A: -12.9%; B: -27.89%.
With C[C@H]1C[C@H]2CN(C(=O)C3=CCCCC3)CC[C@H]2O1 the screen gave A: -6.363%; B: 0.2545%.
With Cc1nc(N2CCCC2)nc(C)c1NS(=O)(=O)c1ccccc1F the screen gave A: -6.233%; B: -4.863%.
With CN(C)Cc1cnc2n1CCN(C(=O)Cc1cccc(F)c1)CC2 the screen gave A: 1.676%.
With COc1ccc(C)c2c1N(C(=O)c1ccc3nnc(C)n3c1)CCC2 the screen gave A: -7.822%; B: 5.144%.
With CNC(=O)NC(=O)CCN1CCN(c2nccs2)CC1 the screen gave A: -25.84%; B: -1.591%.
With O=C(NCCNC(=O)N1CCC(c2ccccc2)C1)C1CC1 (configuration not stated) the screen gave A: -5.251%; B: 10.87%.
With CNC(=O)CN1CCCC1c1ccccc1Br (configuration not stated) the screen gave A: -3.867%; B: 2.206%.
With CCCc1nc(NCCCOCC)c2c(n1)c(C)nn2CC the screen gave A: 4.055%; B: -4.85%.
With Cc1cc(C(=O)N2CCCC2c2nnc3n2CCCCC3)no1 (configuration not stated) the screen gave A: -4.111%; B: -27%.
With COCCNc1ccccc1CNC(=O)NCc1cnc(C)s1 the screen gave A: -14.05%; B: -1.124%.
With Cc1ccc(N2CC[C@@H]3[C@@H]2CCN3Cc2ccsc2)nn1 the screen gave A: -14.64%; B: 1.733%.
With COc1ccc(Cn2cc(C(=O)N(C)Cc3ccn[nH]3)nn2)cc1 the screen gave A: -0.1338%; B: -20.99%.
With COCc1noc(C2(c3ccc(Br)cc3)CCOCC2)n1 the screen gave A: -16.58%; B: -9.595%.
With CCCn1c(SCC(N)=O)nnc1-c1csc2c1CCCC2 the screen gave A: -1.8%; B: 1.687%.
With COc1cc2c(cc1CNC(=O)C(C)n1ccnc1C(C)C)CCC2 (configuration not stated) the screen gave A: -15.31%; B: 0.3727%.
With CN1CCCCC1c1cncc(Cl)n1 (configuration not stated) the screen gave A: 17.34%; B: -8.673%.
With Cc1occc1C(=O)N1CCCC(c2nncn2C)C1 (configuration not stated) the screen gave A: -33.78%; B: 3.133%.
With Cc1nc(C2CCCN2C(=O)c2ccc(N(C)C)nn2)no1 (configuration not stated) the screen gave A: -5.503%; B: 4.857%.
With CCc1ccccc1OC1CN(CC2CCOC2)C1 (configuration not stated) the screen gave A: 1.394%; B: -0.4914%.
With O=S(=O)(NC1CCC12CCN(CC1CCOCC1)CC2)c1ccccc1 (configuration not stated) the screen gave A: 4.522%.
With Cc1cc(C)nc(N2CCCC(c3nccn3CCCN(C)C)C2)c1 (configuration not stated) the screen gave A: -11.48%; B: 5.838%.
With Cc1ncccc1-c1cc2cccnc2n1CCCNC(=O)C1CC1 the screen gave A: -18.39%; B: -0.9709%.
With COCc1noc(-c2ccc(N(C)Cc3c(C)n[nH]c3C)nc2)n1 the screen gave A: -13.58%; B: 1.327%.
With COc1ccc(C(=O)NC2CC2)c(OC2CCN(C3CCC3)CC2)c1 the screen gave A: -3.311%; B: 0%.
With c1nc2c(c(C3CC3)n1)CCN(Cc1ccoc1)CC2 the screen gave A: -1.431%; B: 16.99%.
With Cc1ccc(F)c(OC2(C(=O)O)CCN(C(=O)c3ccncc3)CC2)c1 the screen gave A: -15.73%; B: 0.8485%.
With COC(=O)c1cc(CN2CCN(c3ncccc3C)CC2)ccc1O the screen gave A: -13.07%; B: -0.2558%.
With O=C(NCCc1nncn1C1CC1)c1cnn(Cc2ccccc2)c1 the screen gave A: 5.763%; B: -2.067%.
With CN(C)CCn1c2c(ccc1=O)CCN(Cc1ccncc1)CC2 the screen gave A: 0.5352%; B: 0.6061%.
With O=C(C1CCOC1)N1C[C@@H]2CCN(C(=O)c3cscn3)[C@@H]2C1 (some centres not stated) the screen gave A: 6.195%; B: -10.49%.
With CCc1ncc2c(n1)CN(c1cc(N3CCN(C)CC3)nc(N)n1)C2 the screen gave A: -4.018%; B: 5.66%.
With Cc1ccc(C(=O)Nc2ccc(OC3CCN(C)CC3)cc2)c(C)c1 the screen gave A: -9.749%; B: 0.6031%.
With CCN(CCc1nccs1)C(=O)c1ncoc1C the screen gave A: 4.515%; B: -0.7453%.
With CNc1cc(C)nc(NC2CCCN(C3Cc4ccccc4C3)C2)n1 (configuration not stated) the screen gave A: -24.48%; B: 0.3727%.
With Cc1nc(CCCNC(=O)c2cc(F)ccc2O)n[nH]1 the screen gave A: -8.899%; B: 2.67%.
With Cc1ccc(CN(C(=O)NC2CCS(=O)(=O)C2)C2CC2)o1 (configuration not stated) the screen gave A: 4.852%; B: 6.958%.
With OC1(CNc2cccc(F)c2)CCNCC1 the screen gave A: -12.14%; B: 8.285%.

Repeated from the top, 5 entries:

| SMILES | A | B |
|---|---|---|
| `COc1cccc(CN2CCC(c3cc(O)nc(C)n3)C2)c1` (configuration not stated) | 1.904% | 3.333% |
| `c1ccc(COC[C@@H]2CCC[C@@]23CNCCO3)nc1` | 4.085% | 2.222% |
| `Cc1cnn(CC2CN(CC(=O)Nc3c(C)nn(C)c3C)CCO2)c1` (configuration not stated) | 6.82% | -6.771% |
| `CCC(CC)C(=O)N1CCOC2(CNC2)C1` | -15.56% | 1.527% |
| `CCNC(=O)C(C)Oc1ccc(N(C)S(C)(=O)=O)cc1` (configuration not stated) | -2.653% | -2.008% |